Assay results published in PubChem BioAssay AID2685 (National Center for Advancing Translational Sciences (NCATS), 2010).
About 2,100 (0.66%) of roughly 320,000 compounds were called active. This list was built around the results that the source calls inconclusive (neither active nor inactive); the mix of calls is not that of the screen. The call rests on the fitted dose curve; in most records, active means well fitted inhibition curve with a large enough effect in the signal ratio, with a control signal flat (not every such curve was filed as active); inconclusive means small, poorly fitted or top-dose-only effect, or effect the other way, or a change in a side signal; inactive means flat fitted curve, though single readings scatter; the % refers to the signal ratio. Potencies of inconclusive entries are doubtful fits and often do not repeat.

Assay: qHTS Assay for Lipid Storage Modulators in Drosophila S3 Cells
Conditions: BODIPY lipid droplet fluorescence, 18-24 h, cells fed with added oleic acid; lipid storage change, negative = inhibition: at 46.1 µM (top of the series) unless noted
In short: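 Laser-scanning cytometry quantifies lipid droplet accumulation (500–530 nm total intensity; droplet/cell object ratio) in oleic acid-fed (400 uM added) Drosophila S3 cells treated with a concentration series. 20 uM Triacsin C defined 100% inhibition.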
On the % scale 0 is the no-effect control and ±100 the full control effect; potency means the concentration at half of the fitted maximal effect.

Lipid storage change, negative = inhibition, inactive:
COc1ccccc1-c1nnc(C2CCN(S(=O)(=O)c3ccccc3[N+](=O)[O-])CC2)o1 -28.1%
O=C(NCc1csc(-c2cccs2)n1)Nc1ccc(C(F)(F)F)cc1 -3.23%
Cc1cc[n+](-c2nc3ccccc3nc2[N-]S(=O)(=O)c2cccs2)cc1C 6.93%

Lipid storage change, negative = inhibition, inconclusive:
O=c1c(Cl)c(N2CCC3(CC2)OCCO3)cnn1C12CC3CC(CC(C3)C1)C2 21%
NS(=O)(=O)c1ccc(CCNC(=O)C(=O)C2C(=O)Nc3ccccc32)cc1 (centres undefined) -17.6%
O=C(O)CC(NS(=O)(=O)c1cccc2nsnc12)c1ccc(F)cc1 (centres undefined) 14.1%
Cc1ccc(S(=O)(=O)N(C)c2ccc(C(=O)N3CCc4ccccc4C3)cc2)cc1 -69.2%
CN1OCC(S(=O)(=O)c2ccccc2)C1c1ccccc1 (centres undefined) -18.6%
O=C(COC(=O)c1cc(Cl)ccc1Cl)NC1CCCC1 68%
CCN(CC)CC#CC(C)OCOCC#CCOC (centres undefined) 30.7%
COC(=O)[C@H](Cc1ccccc1)NC(=O)O[C@H]1C(=O)c2ccc(OC)cc2O[C@@H]1c1ccc2c(c1)OCO2 6.09%
COc1ccccc1NC(=O)COc1ccc(/C=N/NC(=O)c2cccnc2)cc1 -28.2%
CCCCc1cc(=O)oc2c(C)c(OCc3nn[nH]n3)ccc12 7.1%
CC(=O)c1cc(C#N)c(Oc2cc(C)cc(C)c2)nc1C -11%
CCOC(=O)CSC1=C(C#N)C(c2ccc(C)s2)CC(=O)N1 (centres undefined) 4.88% [at 9.22 µM]
O=C(NC1CC1)[C@@H]1CSC2c3ccccc3C(=O)N21 (some centres undefined) -37%
CC(=O)c1sc(NC(=O)CCCc2nc3ccccc3c(=O)[nH]2)nc1-c1ccccc1 43.9%
O=C(O)c1c[nH]c2ccc(S(=O)(=O)N3CCN(c4ccc(F)cc4)CC3)cc2c1=O 5.24%
Cc1cc(C)n(CCCNC(=O)c2ccc(C)o2)n1 29.3%
COc1ccc(CCNc2ncnc3cc(OC)c(OC)cc23)cc1OC -33.5%
COc1ccc(C(=O)NC(=S)Nc2cccc(S(=O)(=O)N3CCOCC3)c2)cc1 51.7%
CCCc1c(C(=O)Nc2ccc(F)cc2F)cnn1-c1ccccc1 -22.9%
CCC(C)(C)c1nnc(NC(=O)C2CC(=O)N(CCc3ccc(F)cc3)C2)s1 (centres undefined) 15.5%
CS(=O)(=O)N(CC(=O)N1CCCCCC1)c1cccc([N+](=O)[O-])c1 14.7%
Cn1cnnc1SCC(=O)NC1CCCN(Cc2ccccc2F)C1 (centres undefined) 1.64%
CCN(CC)S(=O)(=O)c1ccc(N2CCCCC2)c(NC(=O)/C=C/c2cc(OC)c(OC)c(OC)c2)c1 53.4% [activator]
CC(OC(=O)/C=C/c1ccccc1)C(=O)Nc1cccc(C#N)c1 (centres undefined)
Cc1cc(Cl)c2oc(C(=O)N(C)C(C)c3ccccn3)c(C)c2c1 (centres undefined) -13.2%
Cc1[nH]c2ccc(-c3nnc(SCC(=O)c4ccc(F)cc4)o3)cc2c1C -2.8%
O=C(O)Cn1nc(-c2ccccc2)c2ccccc2c1=O 15%
COc1ccc(-c2nc(CN(C)C(C)c3ccon3)c(C)o2)c(C)c1C (centres undefined) 19.2%
COc1ccc(C2=NO[C@@H]3[C@@H]4C[C@@H]([C@H]5C(=O)N(c6ccc7c(c6)OCO7)C(=O)[C@@H]45)[C@H]23)cc1OC 18.6%
COc1ccccc1CN(C)C(=O)c1cc(C)nc2ccccc12 -85.2%
COc1ccc(C(=O)N/C(=C\c2ccc3c(c2)OCO3)C(=O)NCCc2nc3ccccc3[nH]2)cc1 1.16%
O=C(COC(=O)Cc1cn2ccsc2n1)NC12CC3CC(CC(C3)C1)C2 -8.97%
Cc1ccc(S(=O)(=O)N2CCN(c3nc4ccccc4nc3-n3nc(C)cc3C)CC2)cc1 1.77%
O=C(NCc1ccc2[nH]c3c(c2c1)CCCC3)c1ccc(S(=O)(=O)N2CCCC2)cc1 2.24%

Arranged by number of heavy atoms (rising): 4 of the compounds above.
Lipid storage change, negative = inhibition, inconclusive:
CCN(CC)CC#CC(C)OCOCC#CCOC (centres undefined) 30.7%
CCOC(=O)CSC1=C(C#N)C(c2ccc(C)s2)CC(=O)N1 (centres undefined) 4.88% [at 9.22 µM]
CC(OC(=O)/C=C/c1ccccc1)C(=O)Nc1cccc(C#N)c1 (centres undefined)
O=C(NCc1ccc2[nH]c3c(c2c1)CCCC3)c1ccc(S(=O)(=O)N2CCCC2)cc1 2.24%

Following part.

Potency, inconclusive:
O=C(CSCc1ccc(Cl)cc1)Nc1ccc(S(=O)(=O)N2CCCCCC2)cc1 29.1 µM [falling, single point]
O=C(CSc1nnnn1C1CC1)Nc1cccc(S(=O)(=O)N2CCCC2)c1 25.9 µM [falling, single point]
O=C1CN(S(=O)(=O)c2ccc(Cl)cc2)CC(=O)N1CCc1ccccc1 6.51 µM [falling, single point]
Cc1ccc(S(=O)(=O)c2c(N)n(CCCO)c3nc4ccccc4nc23)cc1 4.61 µM [activator, partial curve]
COCc1ccc(CN2CCC(C(=O)Nc3cccc(-c4cccc(Cl)c4)c3)CC2)o1 20.6 µM [falling, single point]
Cn1c(SCC(=O)NC2CCCCCC2)nnc1-c1ccco1 29.1 µM [falling, single point]
Cc1ccc(Sc2nc3ccc(C)cn3c(=O)c2/C=N/O)cc1 0.0046 µM [rising, full curve, poor fit]
O=C(NCCCNCc1ccccc1)c1ccccn1 0.82 µM [falling, full curve, poor fit]
O=C(CCNS(=O)(=O)c1ccccc1Cl)N1CCN(c2ccccn2)CC1 20.6 µM [activator, partial curve, poor fit]
COc1cccc(OCc2cc(C(=O)NCc3ccccn3)no2)c1 7.31 µM [falling, partial curve, poor fit]
Cc1nc(-c2ccccn2)sc1C(=O)Nc1ccc(F)cc1 16.4 µM [falling, partial curve]

Potency, active:
N=c1oc2c3c4c(cc2cc1C(=O)Nc1ccccc1)CCCN4CCC3 5.8 µM
